Measured values reported in patent US11702629B2, “Acceleration of stem cell differentiation” (Regents of the University of Minnesota, priority 2017, dated 2023).
“Also recorded” adds a separate entry of the source. At least one compound was matched to its structure with a doubt left.

Experiments:
[1] = test system: human pluripotent stem cells; test: Accelerated neural induction of hPSCs/hiPSCs into neuroepithelium, 24 hours (NANOG/SOX2/SOX1/PAX6 immunostaining); type: cell-based; conditions: panel of hPSC lines
Procedure: Prior to passaging, a recombinant human vitronectin stock solution (500 ug/mL, Peprotech AF-140-09, Rocky Hill, N.J., USA) was diluted 1:100 in DPBS+/+ (ThermoFisher Scientific cat #14040-133, Waltham, Mass., USA) and used to coat 9.6 cm^2 tissue-culture treated wells (Fischer Scientific, Hampton, N.H.) for one hour at room temperature. hPSCs were washed once with 1 mL hypertonic citrate buffer (11) or equivalent and then incubated with 1 mL hypertonic citrate buffer (11) at 37° C. for 6 minutes until colony detachment occurred. The colonies were collected and processed into 25-50 cell fragments by trituration and the dissociation quenched with 5 mL Essential 6 Medium (ThermoFisher Scientific A1516401, Waltham, Mass., USA). Suspensions were collected into 15 mL conical tubes and centrifuged for 1 minute at 200×G. Supernatants were aspirated and pellets resuspended into 1.2 mL Essential 6 Medium (ThermoFisher Scientific A2858501, Waltham, Mass., USA) assuming a 1:6 split ratio. 0.2 mL cultures were seeded onto rhVTN-coated wells containing Essential 8 Medium. Cultures were maintained in Essential 8 Medium with daily media changes and passaged every 3 days. […]
24-hour differentiating cultures were analyzed prior to cell death for various transcription factors associated with pluripotency and NE formation. […]

day-2 neuromesoderm = test: Conversion of day-2 neuromesoderm into spinal neuroepithelium; type: cell-based, human; conditions: day 3
Procedure: Day-one Neuromesoderm progenitors were exposed to differentiation medium consisting of Essential 6 supplemented with CHIR 99021 (3 uM, Tocris cat #4423, Bristol UK) and FGF-Basic TS™ (20 ng/mL, Humanzyme cat #HZ-1286, Chicago, Ill. USA) for 24 hours. This day-two neuromesoderm was further exposed to differentiation medium consisting of Essential 6 supplemented with BGJ398 (100 nM Selleckchem cat #52183 Houston, Tex. USA) to create a day-three population of PAX3/SOX1/HOXB4-positive neuroepithelial cells.
It has been shown that retinoic acid signaling is needed to convert neuromesoderm into spinal cord neuroepithelium. […] It has been shown that retinoids exert multiple simultaneous functions in the developing spinal cord, inhibiting FGF signaling, while activating both WNT and SHH signaling. […] This spinal neuroepithelium was further characterized with respect to additional markers and discovered that it was partially PAX3-positive, an early spinal neural plate marker. The day-3 conditions were optimized to maximize PAX3 and it was discovered that moderate WNT signaling was needed in addition to FGF inhibition to derive a pure population of cervical neural plate epithelium homogeneously expression PAX3 (FIG. 18). To investigate the dorso-ventral patterning competency of these retinoid-independent spinal neuroepithelial cells, the day-3 cultures were exposed to SHH signaling. […]

CNC(=O)c1ccccc1Sc1ccc2c(/C=C/c3ccccn3)n[nH]c2c1 [Axitinib]
Induction of SOX1-immunoreactivity when substituted for SU5402 in the inhibitor cocktail [1]: induced SOX1-immunoreactivity at only relatively high concentrations; also recorded: Induction occurs at only very high concentrations, causing morphological changes to nuclei

CC1=C(/C=C/C(C)=C/C=C/C(C)=C/C(=O)O)C(C)(C)CCC1 [retinoic acid]
Population created from day-2 neuromesoderm (day-2 neuromesoderm): created a mixed population
